Our source for the growth inhibition values is the supplement of paper PMC8326762, “A Small Molecule Inhibitor of Pex3–Pex19 Interaction Disrupts Glycosome Biogenesis and Causes Lethality in Trypanosoma brucei” (Frontiers in Cell and Developmental Biology, 2021).

Each structure is given as a SMILES string. Where a name gives a salt, the structure may show the parent alone. Some of the results follow. The data scatter; read single values as rough.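 Yeast growth was measured as optical density at 600 nm. Two-hybrid strains grew without histidine, so growth depended on Pex3–Pex19 binding. A compound was trypanosome-selective if it reduced growth of the trypanosome-pair strain by over 65% and of the human-pair strain by under 65%.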

The assay concerns T. brucei Pex3-Pex19 interaction (yeast two-hybrid). Briefly: growth inhibition of yeast two-hybrid strain reporting TbPex3-TbPex19 interaction, relative to DMSO; higher = stronger inhibition of T. brucei Pex3-Pex19 interaction / growth. The conditions noted are these: 100 µM; 24 h.
In turn, `NC[C@@H]1O[C@H](O[C@H]2[C@@H](O)[C@H](O[C@@H]3[C@@H](O)[C@H](N)C[C@H](N)[C@H]3O[C@H]3O[C@H](CO)[C@@H](O)[C@H](O)[C@H]3N)O[C@@H]2CO)[C@H](N)[C@@H](O)[C@@H]1O` [Paromomycin sulfate] came in with a growth inhibition of 64.2%.
The same measure for `CC1(C)CCC=[N+]1[O-]` [5,5-Dimethyl-1-pyrroline-N-oxide]: 66.6%.
The same measure for `C[C@]12CCC(=O)C=C1CC[C@@H]1[C@@H]2C(=O)C[C@@]2(C)[C@H]1CC[C@]2(O)C(=O)CO` [Cortisone]: 31.3%; for `CNC(=C[N+](=O)[O-])NCCSCc1ccc(CN(C)C)o1` [Ranitidine hydrochloride]: 62.8%; for `N[C@@H](Cc1c[nH]c2ccc(O)cc12)C(=O)O` [5-Hydroxy-L-tryptophan]: 56.9%.
Compound `CCCCS(=N)(=O)CCC(N)C(=O)O` (racemic) [DL-Buthionine-[S,R]-sulfoximine] yielded a growth inhibition of 33.6%.
For the compound `COCCc1ccc(OCC(O)CNC(C)C)cc1` (racemic) [(±)-Metoprolol (+)-tartrate], the growth inhibition amounted to 37.1%.
